Three substances from paper PMC5374406, “The Phosphorylation of PDX-1 by Protein Kinase CK2 Is Crucial for Its Stability” (Pharmaceuticals, 2016) can be followed below.

Chains of the proteins cited; added tags and fusions are not shown. Lines headed by an entry give the natural chain unless they say otherwise; changes in a name come on top.
UniProt P52946: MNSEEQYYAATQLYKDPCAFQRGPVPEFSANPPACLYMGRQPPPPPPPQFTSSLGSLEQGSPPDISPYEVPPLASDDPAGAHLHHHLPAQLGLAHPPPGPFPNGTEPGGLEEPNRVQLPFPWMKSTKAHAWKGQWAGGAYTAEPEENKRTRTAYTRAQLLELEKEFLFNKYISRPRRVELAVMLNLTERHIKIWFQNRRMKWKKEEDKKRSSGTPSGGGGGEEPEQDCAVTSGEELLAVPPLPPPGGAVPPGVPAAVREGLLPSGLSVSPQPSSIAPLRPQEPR
UniProt O43791: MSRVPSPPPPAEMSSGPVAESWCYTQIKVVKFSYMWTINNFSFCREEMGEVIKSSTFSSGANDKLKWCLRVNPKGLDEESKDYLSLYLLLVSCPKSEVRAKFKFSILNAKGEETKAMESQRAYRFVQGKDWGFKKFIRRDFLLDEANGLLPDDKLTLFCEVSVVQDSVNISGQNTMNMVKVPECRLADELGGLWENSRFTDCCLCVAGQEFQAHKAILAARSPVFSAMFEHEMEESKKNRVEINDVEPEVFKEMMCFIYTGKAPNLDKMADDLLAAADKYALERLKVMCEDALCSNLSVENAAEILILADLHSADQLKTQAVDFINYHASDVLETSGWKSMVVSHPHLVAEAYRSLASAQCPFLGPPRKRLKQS
UniProt Q6ZWS8: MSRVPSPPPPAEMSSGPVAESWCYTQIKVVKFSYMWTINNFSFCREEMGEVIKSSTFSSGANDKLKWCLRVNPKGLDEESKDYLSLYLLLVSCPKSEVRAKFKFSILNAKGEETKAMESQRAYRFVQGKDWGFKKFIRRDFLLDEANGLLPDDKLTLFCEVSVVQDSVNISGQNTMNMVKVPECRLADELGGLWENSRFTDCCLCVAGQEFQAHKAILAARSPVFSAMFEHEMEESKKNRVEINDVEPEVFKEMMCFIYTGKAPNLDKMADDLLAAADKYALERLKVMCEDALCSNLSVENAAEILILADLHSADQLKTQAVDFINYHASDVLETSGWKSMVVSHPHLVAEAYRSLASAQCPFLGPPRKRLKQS

No constants are given. Whether binding was seen depends on the method and setting. In cells and extracts the contact can be indirect. Some entries that bind do so weakly or less than the wild type.

Assay [1] deals with GST-PDX-1 wild type (mouse) (UniProt P52946). Kind of assay: pull-down; 10 ug purified GST-tagged PDX-1 immobilised on GSH-sepharose in PBS-T (PBS pH 7.4, 1% Tween 20), incubated 2 h at 4 °C with 7.5 uL in vitro translated [35S]-methionine labeled PCIF1; SDS-PAGE, Coomassie and autoradiography; only the target purified.
Assay [2] has as its target GST-PDX-1 T231A/S232A (CK2-phosphodeficient mutant) (mouse) (UniProt P52946). The description is as above.
Assay [3] deals with PDX-1, endogenous in MIN6 cells (mouse (endogenous in MIN6)) (UniProt P52946). In words: proximity ligation; Duolink in situ PLA in MIN6 cells with PDX-1 rabbit antiserum and SPOP B-8 mouse antibody; 5 h glucose starvation, then 5 mM or 25 mM glucose for 4 h, with 10 uM CX-4945 or DMSO; dots counted in 50 cells.
Assay [4] has as its target PDX-1 (pancreatic duodenal homeobox 1 protein), wild type, expressed from pcDNA3.1-PDX-1 (mouse) (UniProt P52946). In words: co-IP; MIN6 cells transfected with PDX-1 and FLAG-PCIF1 for 24 h; precleared extract incubated with a rabbit PDX-1 antibody for 2 h, protein A sepharose, washed with PBS; blot with FLAG M2 antibody and PDX-1 antiserum.

With “PCIF1 (human), in vitro translated and [35S]-methionine labeled, from pET28a-PCIF-1 (from UniProt O43791 1-374)”, the binding result in assay [1] and in assay [2] was “binds” in each case. As for “PCIF1, endogenous in MIN6 cells (from UniProt Q6ZWS8 1-374)”, the binding result in assay [3] was “binds”. In the case of “FLAG-tagged PCIF1 (human SPOP) from pFLAG-CMV-2-SPOP (from UniProt O43791 1-374)”, in assay [4], the binding result is recorded as “binds”.
